The results in this text go back to patent US20200030288A1, “STATIN FOR PREVENTION/REDUCTION OF ISCHEMIA-RELATED DAMAGE” (Fundacio Institut De Recerca De L'Hospial De La Santa Creu …, priority 2017, published 2020).

In the assay the test system is swine model of myocardial ischemia. To be noted: 0.3 mg/kg i.v. at 15 min of ischemia; 30, 60 and 90 min after MI induction; vs controls. The text has this: Cardiac rhythm, arterial oxymetry, and arterial pressure were continuously monitored during the procedure. Just before starting the procedure a perfusion of amiodarone and lidocaine was initiated as prophylaxis for malignant left ventricular arrhythmias. All animals of the study were subjected to the same antiarrhythmic pharmacological approach allowing a direct comparison between the groups. By percutaneous approach and fluoroscopy guidance ischemia was induced by complete coronary balloon occlusion of the mid-left anterior descending coronary artery. Contrast angiographies were performed to ensure total coronary occlusion.
Control animals were given intravenous placebo (saline) at 15 min of ischemia. Blood samples (serum) for further assessment of biomarkers of cardiac damage were taken at baseline (i.e. before MI induction or at time=0 min), and at 30 min, 60 min and 90 min after MI induction (ischemia).
Upon taking the 90 min blood sample, the pigs were sacrificed without reperfusion to obtain myocardial tissue for molecular studies and histology.
The concentration of IMA (Ischemic Modified Albumin), CFABP (Cardiac Fatty Acid Binding Protein) and Myoglobin was determined by the respective pig ELISA kits in the blood samples taken 30 min, 60 min and 90 min after MI induction and compared to their baseline values (prior to ischemia induction). […]

Take `CC(C)c1c(C(=O)Nc2ccccc2)c(-c2ccccc2)c(-c2ccc(F)cc2)n1CC[C@@H](O)C[C@@H](O)CC(=O)O` [atorvastatin]: the “CFABP (Cardiac Fatty Acid Binding Protein) blood levels” value is listed as “significantly reduced”.
